Measured values reported in publication PMC9270467.
No constants are given. Whether binding was seen depends on the method and setting. In cells and extracts the contact can be indirect. Some results given as binding are weak or reduced against the parent protein; the word gives no strength. For part of these data: Where a sequence is shown, tags or fusion partners need not be part of it. One block for each molecule: values may come before it.

By UniProt entry, the sequences of proteins in these tests, tags left out. Where a name states a change or a piece, a line headed by the entry shows the natural chain unless it says otherwise. Chains listed by the source or under a name are the forms on record and can include a tag or linker. Residues count along the entry.
UniProt Q9Y3Z3: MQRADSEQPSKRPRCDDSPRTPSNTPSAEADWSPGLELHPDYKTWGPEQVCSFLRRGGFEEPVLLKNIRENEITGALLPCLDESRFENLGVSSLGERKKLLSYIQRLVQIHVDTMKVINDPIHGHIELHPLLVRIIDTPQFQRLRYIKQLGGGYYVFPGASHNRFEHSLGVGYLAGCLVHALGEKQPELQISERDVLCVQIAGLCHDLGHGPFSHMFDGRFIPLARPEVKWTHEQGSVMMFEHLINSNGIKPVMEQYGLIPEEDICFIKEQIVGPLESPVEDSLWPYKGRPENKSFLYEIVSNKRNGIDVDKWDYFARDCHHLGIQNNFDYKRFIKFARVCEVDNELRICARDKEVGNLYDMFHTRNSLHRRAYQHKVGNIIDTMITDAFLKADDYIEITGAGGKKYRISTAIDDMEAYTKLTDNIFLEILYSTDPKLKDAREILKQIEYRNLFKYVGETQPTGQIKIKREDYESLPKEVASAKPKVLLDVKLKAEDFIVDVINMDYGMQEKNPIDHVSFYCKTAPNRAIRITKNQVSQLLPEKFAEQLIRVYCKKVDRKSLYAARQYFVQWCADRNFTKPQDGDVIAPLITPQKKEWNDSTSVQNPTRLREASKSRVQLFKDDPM
Myc-SAMHD1 truncation mutant, amino acids 115-562: residues 115-562 of Q9Y3Z3
SAMHD1 truncation mutant with deletion of amino acids 115 to 562 (Q9Y3Z3, form named): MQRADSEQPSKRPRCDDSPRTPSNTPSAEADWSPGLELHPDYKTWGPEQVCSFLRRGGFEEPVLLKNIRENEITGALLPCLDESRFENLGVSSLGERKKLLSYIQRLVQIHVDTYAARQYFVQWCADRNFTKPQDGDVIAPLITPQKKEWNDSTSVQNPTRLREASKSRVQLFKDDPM
UniProt Q9Y4B6: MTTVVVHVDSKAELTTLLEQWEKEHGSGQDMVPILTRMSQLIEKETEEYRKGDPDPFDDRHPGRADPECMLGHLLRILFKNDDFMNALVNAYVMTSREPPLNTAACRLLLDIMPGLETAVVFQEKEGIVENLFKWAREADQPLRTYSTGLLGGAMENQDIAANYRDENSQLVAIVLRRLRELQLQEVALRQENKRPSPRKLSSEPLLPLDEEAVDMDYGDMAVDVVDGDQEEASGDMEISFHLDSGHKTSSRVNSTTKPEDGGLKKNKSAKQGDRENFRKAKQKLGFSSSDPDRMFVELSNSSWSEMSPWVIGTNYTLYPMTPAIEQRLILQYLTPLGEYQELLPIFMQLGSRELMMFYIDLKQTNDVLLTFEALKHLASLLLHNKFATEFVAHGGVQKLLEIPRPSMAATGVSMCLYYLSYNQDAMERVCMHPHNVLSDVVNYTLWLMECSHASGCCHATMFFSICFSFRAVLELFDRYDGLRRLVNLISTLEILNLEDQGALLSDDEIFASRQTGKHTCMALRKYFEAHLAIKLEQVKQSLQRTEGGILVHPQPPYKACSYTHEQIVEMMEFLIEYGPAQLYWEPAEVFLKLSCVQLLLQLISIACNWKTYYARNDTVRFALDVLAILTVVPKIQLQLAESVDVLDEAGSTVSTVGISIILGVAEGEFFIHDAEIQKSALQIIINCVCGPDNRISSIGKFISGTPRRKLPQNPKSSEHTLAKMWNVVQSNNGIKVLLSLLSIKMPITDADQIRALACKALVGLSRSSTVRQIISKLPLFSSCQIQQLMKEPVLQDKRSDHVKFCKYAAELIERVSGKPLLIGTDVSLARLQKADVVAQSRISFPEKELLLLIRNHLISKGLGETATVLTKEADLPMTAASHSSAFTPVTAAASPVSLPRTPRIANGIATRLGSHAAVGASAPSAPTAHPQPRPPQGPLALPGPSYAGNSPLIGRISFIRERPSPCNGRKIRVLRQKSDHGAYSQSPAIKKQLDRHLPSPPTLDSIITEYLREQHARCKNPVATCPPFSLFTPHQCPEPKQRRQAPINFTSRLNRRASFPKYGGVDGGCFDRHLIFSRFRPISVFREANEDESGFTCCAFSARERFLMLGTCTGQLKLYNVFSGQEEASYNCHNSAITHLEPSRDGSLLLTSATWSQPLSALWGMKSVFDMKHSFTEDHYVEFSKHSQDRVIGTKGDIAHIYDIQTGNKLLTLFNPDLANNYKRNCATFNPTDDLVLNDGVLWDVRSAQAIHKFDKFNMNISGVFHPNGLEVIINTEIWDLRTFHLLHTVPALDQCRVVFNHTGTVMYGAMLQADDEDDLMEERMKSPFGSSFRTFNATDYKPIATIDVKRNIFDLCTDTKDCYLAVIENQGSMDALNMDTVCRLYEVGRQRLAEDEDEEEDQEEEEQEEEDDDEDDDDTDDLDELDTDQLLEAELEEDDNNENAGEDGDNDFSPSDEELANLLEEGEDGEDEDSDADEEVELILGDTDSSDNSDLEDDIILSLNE

How the values were obtained:
[1] = biological target: SAMHD1 (endogenous) (human (endogenous in HL60 and THP-1)) (UniProt Q9Y3Z3); assay: co-IP; endogenous IP: AML cell (HL60, THP-1) lysates in RIPA buffer, 4 μg anti-NONO or anti-SAMHD1 antibody 3 h at 4 °C, protein A/G agarose, IgG as negative control; for Fig. 4H THP-1 cells with NONO silenced for 48 h
Myc-tagged SAMHD1 [2] = biological target: Myc-tagged SAMHD1 (UniProt Q9Y3Z3); assay: co-IP; 293T cells cotransfected with Myc-tagged SAMHD1 and HA-tagged DCAF1 with or without overexpression of Myc-tagged NONO for 24 h; co-IP and western blotting
Myc-tagged SAMHD1 [3] = biological target: Myc-tagged SAMHD1 (UniProt Q9Y3Z3); assay: co-IP; exogenous IP: lysates (RIPA buffer) of cotransfected 293T cells incubated with anti-HA or anti-Myc agarose for 4 h at 4 °C or overnight, washed with RIPA buffer, western blotting
Myc-tagged NONO = biological target: T1, Myc-tagged NONO (UniProt Q15233); assay: as above
T1 sequence: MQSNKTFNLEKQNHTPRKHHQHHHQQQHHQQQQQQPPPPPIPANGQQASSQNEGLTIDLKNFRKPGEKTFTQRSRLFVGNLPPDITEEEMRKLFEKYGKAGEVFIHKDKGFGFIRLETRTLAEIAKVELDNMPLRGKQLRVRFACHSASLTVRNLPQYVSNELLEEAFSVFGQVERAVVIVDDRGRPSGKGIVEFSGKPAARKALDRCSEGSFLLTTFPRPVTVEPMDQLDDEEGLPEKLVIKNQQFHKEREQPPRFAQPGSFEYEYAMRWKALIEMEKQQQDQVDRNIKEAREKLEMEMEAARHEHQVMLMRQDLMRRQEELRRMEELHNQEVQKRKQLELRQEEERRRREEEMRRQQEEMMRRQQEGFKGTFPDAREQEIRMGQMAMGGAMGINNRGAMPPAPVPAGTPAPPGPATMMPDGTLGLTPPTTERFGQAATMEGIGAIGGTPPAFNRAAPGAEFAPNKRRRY

[4] = biological target: T2, NONO (endogenous) (human (endogenous in HL60 and THP-1)) (UniProt Q15233); assay: co-IP; endogenous IP: AML cell (HL60, THP-1) lysates in RIPA buffer, 4 μg anti-NONO or anti-SAMHD1 antibody 3 h at 4 °C, protein A/G agarose, IgG as negative control; for Fig. 4H THP-1 cells with NONO silenced for 48 h
T2 sequence: T1 sequence

GST-NONO = biological target: T3, GST-NONO (UniProt Q15233); assay: pull-down; GST-NONO, GST-SAMHD1 or GST from E. coli immobilized on Glutathione-Sepharose beads, incubated with THP-1 whole-cell lysate 3 h or overnight, washed with RIPA buffer, western blotting; only the target purified
T3 sequence: T1 sequence

HA-tagged SAMHD1 = HA-tagged SAMHD1 (UniProt Q9Y3Z3); assay: co-IP; exogenous IP: lysates (RIPA buffer) of cotransfected 293T cells incubated with anti-HA or anti-Myc agarose for 4 h at 4 °C or overnight, washed with RIPA buffer, western blotting
Myc-tagged SAMHD1 [5] = biological target: Myc-tagged SAMHD1 (UniProt Q9Y3Z3); assay: co-IP; 293T cells cotransfected with Myc-tagged SAMHD1 and HA-tagged DCAF1 with or without overexpression of Myc-tagged NONO for 24 h; co-IP and western blotting; remark: listed apart in the source
[6] = biological target: Myc-SAMHD1 truncation mutant, amino acids 115-562 (UniProt Q9Y3Z3); assay: co-IP; exogenous IP: lysates (RIPA buffer) of cotransfected 293T cells incubated with anti-HA or anti-Myc agarose for 4 h at 4 °C or overnight, washed with RIPA buffer, western blotting
[7] = biological target: SAMHD1 truncation mutant with deletion of amino acids 115 to 562 (UniProt Q9Y3Z3); assay: as above
GST-SAMHD1 = GST-SAMHD1 (UniProt Q9Y3Z3); assay: pull-down; GST-NONO, GST-SAMHD1 or GST from E. coli immobilized on Glutathione-Sepharose beads, incubated with THP-1 whole-cell lysate 3 h or overnight, washed with RIPA buffer, western blotting; only the target purified

- binding [1]: binds
Molecule: DCAF1 (endogenous) (from UniProt Q9Y4B6 1-1507)

- binding (Myc-tagged SAMHD1 [2]): binds
- binding (Myc-tagged SAMHD1 [3]): binds
Molecule: HA-tagged DCAF1 (from UniProt Q9Y4B6 1-1507)

The remaining lines, values behind:

Molecule: HA-tagged SAMHD1 (from UniProt Q9Y3Z3 1-626)
- binding (Myc-tagged NONO): binds

Molecule: SAMHD1 (endogenous) (from UniProt Q9Y3Z3 1-626)
- binding [4]: binds
- binding (GST-NONO): binds

B1: Myc-tagged NONO (protein, UniProt Q15233 1-471)
chain: T1 sequence
- binding (HA-tagged SAMHD1): binds
- binding (Myc-tagged SAMHD1 [5]): binds

B2: HA-tagged NONO (protein, UniProt Q15233 1-471)
chain: T1 sequence
- binding [6]: binds
- binding [7]: no binding
- binding (Myc-tagged SAMHD1 [3]): binds

B3: NONO (endogenous) (protein, UniProt Q15233 1-471)
chain: T1 sequence
- binding (GST-SAMHD1): binds
